# The other results are listed elsewhere or left out.
# By UniProt entry, the sequences of proteins in these tests, tags left out. Where a name states a change or a piece, a line headed by the entry shows the natural chain unless it says otherwise.
# UniProt Q7Z6Z7, whole entry, looked up: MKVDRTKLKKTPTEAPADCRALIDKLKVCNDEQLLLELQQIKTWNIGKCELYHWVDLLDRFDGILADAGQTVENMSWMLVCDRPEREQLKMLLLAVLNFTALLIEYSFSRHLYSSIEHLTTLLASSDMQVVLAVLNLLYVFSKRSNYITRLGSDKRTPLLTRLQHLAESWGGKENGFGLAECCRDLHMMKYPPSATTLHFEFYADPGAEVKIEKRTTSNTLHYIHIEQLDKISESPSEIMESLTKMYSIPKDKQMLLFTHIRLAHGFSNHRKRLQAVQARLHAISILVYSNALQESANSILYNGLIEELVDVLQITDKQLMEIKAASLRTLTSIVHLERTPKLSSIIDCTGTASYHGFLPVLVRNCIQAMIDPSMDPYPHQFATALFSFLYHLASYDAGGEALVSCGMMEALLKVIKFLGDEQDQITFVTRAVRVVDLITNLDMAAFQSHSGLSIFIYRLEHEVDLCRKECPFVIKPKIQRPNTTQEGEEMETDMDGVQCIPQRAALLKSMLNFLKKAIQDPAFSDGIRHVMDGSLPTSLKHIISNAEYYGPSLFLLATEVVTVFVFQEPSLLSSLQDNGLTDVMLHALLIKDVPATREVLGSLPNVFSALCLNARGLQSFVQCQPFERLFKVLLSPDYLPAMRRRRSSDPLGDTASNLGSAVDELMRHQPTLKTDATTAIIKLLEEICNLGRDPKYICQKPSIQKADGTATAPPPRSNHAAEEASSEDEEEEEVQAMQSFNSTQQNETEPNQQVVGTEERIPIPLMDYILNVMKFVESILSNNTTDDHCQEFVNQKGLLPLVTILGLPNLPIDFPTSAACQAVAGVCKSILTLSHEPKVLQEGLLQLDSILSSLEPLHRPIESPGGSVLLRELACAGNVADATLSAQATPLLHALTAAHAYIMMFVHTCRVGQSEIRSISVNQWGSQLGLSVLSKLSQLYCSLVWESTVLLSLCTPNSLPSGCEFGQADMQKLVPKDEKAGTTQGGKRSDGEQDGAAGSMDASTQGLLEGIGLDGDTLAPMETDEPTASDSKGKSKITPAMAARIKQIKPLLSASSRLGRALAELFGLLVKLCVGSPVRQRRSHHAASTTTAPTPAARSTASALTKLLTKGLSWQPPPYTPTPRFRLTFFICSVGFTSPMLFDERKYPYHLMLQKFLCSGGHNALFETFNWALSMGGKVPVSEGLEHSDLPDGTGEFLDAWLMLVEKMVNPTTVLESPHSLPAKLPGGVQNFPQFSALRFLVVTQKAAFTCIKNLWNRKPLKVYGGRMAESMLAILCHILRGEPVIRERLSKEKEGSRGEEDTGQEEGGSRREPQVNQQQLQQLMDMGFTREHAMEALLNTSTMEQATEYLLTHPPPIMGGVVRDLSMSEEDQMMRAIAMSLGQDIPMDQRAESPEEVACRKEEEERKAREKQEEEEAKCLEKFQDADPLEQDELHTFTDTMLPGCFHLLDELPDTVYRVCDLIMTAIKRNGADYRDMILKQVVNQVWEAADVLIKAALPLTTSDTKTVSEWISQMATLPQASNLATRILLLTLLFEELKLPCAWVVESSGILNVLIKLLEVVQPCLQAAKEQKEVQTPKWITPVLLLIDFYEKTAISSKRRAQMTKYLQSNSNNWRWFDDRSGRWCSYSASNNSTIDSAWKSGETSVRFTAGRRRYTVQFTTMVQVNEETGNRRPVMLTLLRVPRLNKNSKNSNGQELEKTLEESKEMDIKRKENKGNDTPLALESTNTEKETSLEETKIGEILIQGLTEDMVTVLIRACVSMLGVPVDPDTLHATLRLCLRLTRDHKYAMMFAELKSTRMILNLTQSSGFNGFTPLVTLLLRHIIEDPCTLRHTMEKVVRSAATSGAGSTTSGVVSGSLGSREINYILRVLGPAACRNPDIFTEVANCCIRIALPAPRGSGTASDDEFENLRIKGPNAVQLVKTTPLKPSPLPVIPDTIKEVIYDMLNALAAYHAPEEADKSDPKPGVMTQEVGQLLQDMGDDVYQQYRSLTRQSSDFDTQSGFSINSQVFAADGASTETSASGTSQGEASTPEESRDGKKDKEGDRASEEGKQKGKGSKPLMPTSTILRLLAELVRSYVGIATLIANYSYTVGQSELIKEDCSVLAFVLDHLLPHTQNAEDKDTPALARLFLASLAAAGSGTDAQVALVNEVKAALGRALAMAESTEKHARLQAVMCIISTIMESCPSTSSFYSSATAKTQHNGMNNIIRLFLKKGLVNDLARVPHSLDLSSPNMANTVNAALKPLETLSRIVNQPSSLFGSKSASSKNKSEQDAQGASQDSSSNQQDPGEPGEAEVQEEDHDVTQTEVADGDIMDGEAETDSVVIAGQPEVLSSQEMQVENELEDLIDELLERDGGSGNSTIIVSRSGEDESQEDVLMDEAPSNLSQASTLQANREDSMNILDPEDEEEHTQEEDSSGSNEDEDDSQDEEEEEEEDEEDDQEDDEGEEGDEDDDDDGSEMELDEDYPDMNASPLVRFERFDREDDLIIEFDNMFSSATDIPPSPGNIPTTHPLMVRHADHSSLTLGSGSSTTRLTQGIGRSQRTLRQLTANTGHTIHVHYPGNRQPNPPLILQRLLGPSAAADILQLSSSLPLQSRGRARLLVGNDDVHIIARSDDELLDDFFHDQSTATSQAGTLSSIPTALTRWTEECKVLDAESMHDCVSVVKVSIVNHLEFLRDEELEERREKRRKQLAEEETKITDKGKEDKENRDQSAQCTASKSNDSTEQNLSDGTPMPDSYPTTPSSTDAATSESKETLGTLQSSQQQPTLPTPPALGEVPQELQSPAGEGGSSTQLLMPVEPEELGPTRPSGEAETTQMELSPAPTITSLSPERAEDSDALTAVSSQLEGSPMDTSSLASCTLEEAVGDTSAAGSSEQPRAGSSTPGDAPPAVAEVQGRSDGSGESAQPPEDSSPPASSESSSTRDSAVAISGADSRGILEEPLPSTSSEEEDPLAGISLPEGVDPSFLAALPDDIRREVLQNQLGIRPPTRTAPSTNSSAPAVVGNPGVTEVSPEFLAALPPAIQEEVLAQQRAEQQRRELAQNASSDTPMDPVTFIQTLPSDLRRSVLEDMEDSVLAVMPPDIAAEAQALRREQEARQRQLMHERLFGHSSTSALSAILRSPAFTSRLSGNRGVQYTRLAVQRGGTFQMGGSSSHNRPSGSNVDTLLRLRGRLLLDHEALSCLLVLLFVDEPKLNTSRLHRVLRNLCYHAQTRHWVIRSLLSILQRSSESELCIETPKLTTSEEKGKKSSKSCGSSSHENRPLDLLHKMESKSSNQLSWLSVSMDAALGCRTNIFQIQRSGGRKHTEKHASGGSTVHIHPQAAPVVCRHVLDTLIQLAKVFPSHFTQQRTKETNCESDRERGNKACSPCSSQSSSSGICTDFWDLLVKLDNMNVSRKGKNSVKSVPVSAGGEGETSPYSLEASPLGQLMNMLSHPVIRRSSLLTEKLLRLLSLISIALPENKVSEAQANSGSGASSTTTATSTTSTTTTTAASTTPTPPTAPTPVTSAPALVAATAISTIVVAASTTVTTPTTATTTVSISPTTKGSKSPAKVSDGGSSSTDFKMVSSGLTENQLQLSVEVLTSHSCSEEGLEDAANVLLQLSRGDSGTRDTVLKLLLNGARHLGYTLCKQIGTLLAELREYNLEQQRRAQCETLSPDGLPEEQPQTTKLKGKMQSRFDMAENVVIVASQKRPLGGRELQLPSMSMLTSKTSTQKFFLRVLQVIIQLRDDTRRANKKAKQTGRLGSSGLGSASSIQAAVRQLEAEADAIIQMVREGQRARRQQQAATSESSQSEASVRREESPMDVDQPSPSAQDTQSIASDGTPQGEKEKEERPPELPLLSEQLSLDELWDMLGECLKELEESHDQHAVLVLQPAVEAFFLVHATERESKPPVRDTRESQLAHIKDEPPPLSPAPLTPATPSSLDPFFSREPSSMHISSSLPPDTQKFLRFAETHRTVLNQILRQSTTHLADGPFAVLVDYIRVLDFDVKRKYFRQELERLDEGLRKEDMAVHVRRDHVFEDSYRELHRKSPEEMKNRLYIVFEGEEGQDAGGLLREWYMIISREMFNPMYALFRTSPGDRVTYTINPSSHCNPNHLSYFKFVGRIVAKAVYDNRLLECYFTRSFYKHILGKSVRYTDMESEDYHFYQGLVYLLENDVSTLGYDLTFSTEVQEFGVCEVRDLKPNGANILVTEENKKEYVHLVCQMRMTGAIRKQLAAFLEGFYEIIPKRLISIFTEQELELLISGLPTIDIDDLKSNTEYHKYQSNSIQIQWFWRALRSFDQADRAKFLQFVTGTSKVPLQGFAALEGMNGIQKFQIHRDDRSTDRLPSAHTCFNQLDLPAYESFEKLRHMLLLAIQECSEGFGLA
# UniProt Q00839, whole entry, looked up: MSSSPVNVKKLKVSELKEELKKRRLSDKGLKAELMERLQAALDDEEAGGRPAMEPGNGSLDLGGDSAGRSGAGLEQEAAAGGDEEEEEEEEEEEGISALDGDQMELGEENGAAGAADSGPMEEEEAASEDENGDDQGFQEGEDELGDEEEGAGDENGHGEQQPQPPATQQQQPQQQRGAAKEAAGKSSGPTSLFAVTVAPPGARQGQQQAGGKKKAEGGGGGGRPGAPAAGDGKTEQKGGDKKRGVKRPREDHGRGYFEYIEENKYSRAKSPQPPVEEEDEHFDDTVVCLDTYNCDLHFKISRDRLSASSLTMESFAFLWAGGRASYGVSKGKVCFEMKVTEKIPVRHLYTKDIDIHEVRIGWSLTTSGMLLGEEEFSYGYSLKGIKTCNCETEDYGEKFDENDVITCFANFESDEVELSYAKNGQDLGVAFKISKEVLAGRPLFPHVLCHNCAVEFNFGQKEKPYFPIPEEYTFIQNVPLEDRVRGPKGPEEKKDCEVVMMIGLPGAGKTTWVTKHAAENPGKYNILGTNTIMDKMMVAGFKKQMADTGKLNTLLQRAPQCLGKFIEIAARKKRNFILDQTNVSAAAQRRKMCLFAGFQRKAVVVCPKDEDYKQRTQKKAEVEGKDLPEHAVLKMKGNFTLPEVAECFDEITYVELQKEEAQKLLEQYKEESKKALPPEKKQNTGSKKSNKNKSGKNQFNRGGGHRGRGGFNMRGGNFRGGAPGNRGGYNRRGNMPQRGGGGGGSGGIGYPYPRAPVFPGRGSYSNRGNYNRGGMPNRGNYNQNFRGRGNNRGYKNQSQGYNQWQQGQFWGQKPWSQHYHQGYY
# UniProt P09651: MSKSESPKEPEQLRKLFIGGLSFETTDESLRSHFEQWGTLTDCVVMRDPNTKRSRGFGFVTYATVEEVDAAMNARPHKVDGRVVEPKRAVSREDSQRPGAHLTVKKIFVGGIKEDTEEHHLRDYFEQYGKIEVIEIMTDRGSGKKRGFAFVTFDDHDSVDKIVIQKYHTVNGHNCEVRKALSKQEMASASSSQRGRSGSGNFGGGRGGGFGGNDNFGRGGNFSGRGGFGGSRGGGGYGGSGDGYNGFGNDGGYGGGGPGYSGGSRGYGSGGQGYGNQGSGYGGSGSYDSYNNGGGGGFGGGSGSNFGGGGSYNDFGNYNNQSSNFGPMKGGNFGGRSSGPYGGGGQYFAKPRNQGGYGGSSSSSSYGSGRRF
# UniProt P34932: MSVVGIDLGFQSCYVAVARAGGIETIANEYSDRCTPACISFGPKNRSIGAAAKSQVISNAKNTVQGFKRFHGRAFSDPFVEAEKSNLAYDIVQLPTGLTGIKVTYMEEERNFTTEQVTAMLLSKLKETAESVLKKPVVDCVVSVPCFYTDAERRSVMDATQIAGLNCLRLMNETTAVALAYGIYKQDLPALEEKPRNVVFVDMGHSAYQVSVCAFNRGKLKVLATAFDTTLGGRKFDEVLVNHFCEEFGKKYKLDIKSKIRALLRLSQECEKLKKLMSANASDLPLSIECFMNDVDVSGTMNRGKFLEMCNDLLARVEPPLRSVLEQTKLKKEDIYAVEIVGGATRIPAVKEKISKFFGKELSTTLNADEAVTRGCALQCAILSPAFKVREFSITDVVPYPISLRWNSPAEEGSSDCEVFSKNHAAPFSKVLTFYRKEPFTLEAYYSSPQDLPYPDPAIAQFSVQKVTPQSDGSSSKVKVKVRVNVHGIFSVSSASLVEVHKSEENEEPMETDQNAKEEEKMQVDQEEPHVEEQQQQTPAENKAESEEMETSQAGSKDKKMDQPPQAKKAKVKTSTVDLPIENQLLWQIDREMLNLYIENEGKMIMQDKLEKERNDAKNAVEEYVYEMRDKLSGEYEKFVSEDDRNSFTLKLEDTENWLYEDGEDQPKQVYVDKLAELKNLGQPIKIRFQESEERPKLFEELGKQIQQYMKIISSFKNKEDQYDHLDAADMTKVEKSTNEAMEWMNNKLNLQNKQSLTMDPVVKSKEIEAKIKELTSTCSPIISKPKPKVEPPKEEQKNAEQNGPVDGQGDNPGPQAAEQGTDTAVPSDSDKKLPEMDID
# Compound: Cc1cc(ccc1-c1ccccc1)C(=O)N1CCCN(CC1)C(=O)CCl [compound 10]
# Assay: probe-labelled cysteine peptide fold change vs DMSO (competition) (log2 fold change); higher = less target engagement (more negative = stronger competition)
# Conditions: THP-1, incubation time: 4 h
# 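Also: competitive profiling in live THP-1 cells: cysteine peptides tagged with an iodoacetamide desthiobiotin (IA-DTB) probe, intensity after compound treatment relative to DMSO-treated cells.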
target,measurement,setting,value
HSPA9_P38646_608_MEEFKDQLPADECNK (UniProt P38646),probe-labelled cysteine peptide fold change,10 µM,-0.0596
same,probe-labelled cysteine peptide fold change,50 µM,-0.692
HSPA9_P38646_366_TIAPCQK (UniProt P38646),probe-labelled cysteine peptide fold change,10 µM,-0.191
same,probe-labelled cysteine peptide fold change,50 µM,0.0446
HNRNPA0_Q13151_36_GHFEAFGTLTDCVVVVNPQTK (UniProt Q13151),probe-labelled cysteine peptide fold change,10 µM,0.0272
same,probe-labelled cysteine peptide fold change,50 µM,-0.135
HPS5_Q9UPZ3_1085_AWSLLQECGLALELSEK (UniProt Q9UPZ3),probe-labelled cysteine peptide fold change,10 µM,0.116
same,probe-labelled cysteine peptide fold change,50 µM,0.0637
HSP90AA1_P07900_420_CLELFTELAEDK (UniProt P07900),probe-labelled cysteine peptide fold change,10 µM,-0.0655
same,probe-labelled cysteine peptide fold change,50 µM,0.0245
HNRNPF_P52597_22+34_GLPWSCSVEDVQNFLSDCTIHDGAAGVHFIYTR (UniProt P52597),probe-labelled cysteine peptide fold change,10 µM,0.101
same,probe-labelled cysteine peptide fold change,50 µM,0.0921
HSPBP1_Q9NZL4_201_LLDRDACDTVR (UniProt Q9NZL4),probe-labelled cysteine peptide fold change,10 µM,-0.444
same,probe-labelled cysteine peptide fold change,50 µM,-0.745
HNRNPH1_P31943_22_GLPWSCSADEVQR (UniProt P31943),probe-labelled cysteine peptide fold change,10 µM,0.101
same,probe-labelled cysteine peptide fold change,50 µM,0.116
HUWE1_Q7Z6Z7_1252_AAFTCIK (UniProt Q7Z6Z7),probe-labelled cysteine peptide fold change,10 µM,-0.276
same,probe-labelled cysteine peptide fold change,50 µM,0.142
HSPA1A_P0DMV8_17_AAAIGIDLGTTYSCVGVFQHGK (UniProt P0DMV8),probe-labelled cysteine peptide fold change,10 µM,0.828
same,probe-labelled cysteine peptide fold change,50 µM,0.931
HNRNPU_Q00839_335_VCFEMK (UniProt Q00839),probe-labelled cysteine peptide fold change,10 µM,0.0568
same,probe-labelled cysteine peptide fold change,50 µM,0.0504
HMOX2_P30519_265_CPFYAAEQDK (UniProt P30519),probe-labelled cysteine peptide fold change,10 µM,-0.451
same,probe-labelled cysteine peptide fold change,50 µM,-2.31
HNRNPU_Q00839_450_PLFPHVLCHNCAVEFNFGQK (UniProt Q00839),probe-labelled cysteine peptide fold change,10 µM,0.144
same,probe-labelled cysteine peptide fold change,50 µM,0.0368
HNRNPU_Q00839_648_GNFTLPEVAECFDEITYVELQK (UniProt Q00839),probe-labelled cysteine peptide fold change,10 µM,0.16
same,probe-labelled cysteine peptide fold change,50 µM,0.0148
HSD17B4_P51659_277_KICDFENASKPQSIQESTGSIIEVLSK (UniProt P51659),probe-labelled cysteine peptide fold change,10 µM,-0.047
same,probe-labelled cysteine peptide fold change,50 µM,-0.232
HNRNPUL2_Q1KMD3_408_NCVVELNFGQKEEPFFPPPEEFVFIHAVPVEER (UniProt Q1KMD3),probe-labelled cysteine peptide fold change,10 µM,-0.0678
same,probe-labelled cysteine peptide fold change,50 µM,-0.142
HTATSF1_O43719_328_LLLFDRHPDGVASVSFRDPEEADYCIQTLDGR (UniProt O43719),probe-labelled cysteine peptide fold change,10 µM,0.168
same,probe-labelled cysteine peptide fold change,50 µM,-0.0493
HSD17B10_Q99714_58_LGNNCVFAPADVTSEK (UniProt Q99714),probe-labelled cysteine peptide fold change,10 µM,0.0652
same,probe-labelled cysteine peptide fold change,50 µM,0.118
HSDL1_Q3SXM5_42_SITVICDFYSLIR (UniProt Q3SXM5),probe-labelled cysteine peptide fold change,10 µM,-0.284
same,probe-labelled cysteine peptide fold change,50 µM,-0.0821
HSD17B12_Q53GQ0_166_KMININILSVCK (UniProt Q53GQ0),probe-labelled cysteine peptide fold change,10 µM,-0.234
same,probe-labelled cysteine peptide fold change,50 µM,-0.553
HSPA2_P54652_18_GPAIGIDLGTTYSCVGVFQHGK (UniProt P54652),probe-labelled cysteine peptide fold change,10 µM,0.213
same,probe-labelled cysteine peptide fold change,50 µM,0.129
HNRNPL_P14866_260+261_ASLNGADIYSGCCTLK (UniProt P14866),probe-labelled cysteine peptide fold change,10 µM,0.0811
same,probe-labelled cysteine peptide fold change,50 µM,-0.289
HNRNPUL1_Q9BUJ2_377_NCAVEFNFGQR (UniProt Q9BUJ2),probe-labelled cysteine peptide fold change,10 µM,0.093
same,probe-labelled cysteine peptide fold change,50 µM,0.2
HNRNPUL1_Q9BUJ2_487_WDVLIQQATQCLNR (UniProt Q9BUJ2),probe-labelled cysteine peptide fold change,10 µM,-0.168
same,probe-labelled cysteine peptide fold change,50 µM,0.18
HSPH1_Q92598_34_CTPSVISFGSK (UniProt Q92598),probe-labelled cysteine peptide fold change,10 µM,0.114
same,probe-labelled cysteine peptide fold change,50 µM,0.0449
HSP90B1_P14625_645_LTESPCALVASQYGWSGNMER (UniProt P14625),probe-labelled cysteine peptide fold change,10 µM,-0.219
same,probe-labelled cysteine peptide fold change,50 µM,0.0319
HSPD1_P10809_237_CEFQDAYVLLSEK (UniProt P10809),probe-labelled cysteine peptide fold change,10 µM,-0.0669
same,probe-labelled cysteine peptide fold change,50 µM,0.139
HNRNPA1_P09651_175_YHTVNGHNCEVR (UniProt P09651),probe-labelled cysteine peptide fold change,10 µM,-0.0593
same,probe-labelled cysteine peptide fold change,50 µM,0.0843
HPRT1_P00492_206_DLNHVCVISETGK (UniProt P00492),probe-labelled cysteine peptide fold change,10 µM,0.0701
same,probe-labelled cysteine peptide fold change,50 µM,-0.0429
HUS1_O60921_44_LNFILCDK (UniProt O60921),probe-labelled cysteine peptide fold change,10 µM,0.0823
same,probe-labelled cysteine peptide fold change,50 µM,-0.125
HNRNPDL_O14979_177_FGEVVDCTIKTDPVTGR (UniProt O14979),probe-labelled cysteine peptide fold change,10 µM,-0.0962
same,probe-labelled cysteine peptide fold change,50 µM,-0.952
HUWE1_Q7Z6Z7_1278_MAESMLAILCHILR (UniProt Q7Z6Z7),probe-labelled cysteine peptide fold change,10 µM,0.0889
same,probe-labelled cysteine peptide fold change,50 µM,0.213
HNRNPC_P07910_46_IVGCSVHK (UniProt P07910),probe-labelled cysteine peptide fold change,10 µM,0.221
same,probe-labelled cysteine peptide fold change,50 µM,0.221
HNRNPA3_P51991_196_YHTINGHNCEVKK (UniProt P51991),probe-labelled cysteine peptide fold change,10 µM,-0.0477
same,probe-labelled cysteine peptide fold change,50 µM,-0.0806
HNRNPA3_P51991_196_YHTINGHNCEVK (UniProt P51991),probe-labelled cysteine peptide fold change,10 µM,0.0535
same,probe-labelled cysteine peptide fold change,50 µM,0.0559
HNMT_P50135_31_FLNHSTEHQCMQEFMDK (UniProt P50135),probe-labelled cysteine peptide fold change,10 µM,-0.11
same,probe-labelled cysteine peptide fold change,50 µM,-0.319
HPS6_Q86YV9_164_AEGPSGSPAAAFSHCVCVR (UniProt Q86YV9),probe-labelled cysteine peptide fold change,10 µM,0.219
same,probe-labelled cysteine peptide fold change,50 µM,-0.0783
HSDL2_Q6YN16_166_QHCAYTIAK (UniProt Q6YN16),probe-labelled cysteine peptide fold change,10 µM,-0.107
same,probe-labelled cysteine peptide fold change,50 µM,-0.063
HSP90AB1_P08238_366_VFIMDSCDELIPEYLNFIR (UniProt P08238),probe-labelled cysteine peptide fold change,10 µM,-0.121
same,probe-labelled cysteine peptide fold change,50 µM,-0.0474
HSPA4_P34932_213_NVVFVDMGHSAYQVSVCAFNR (UniProt P34932),probe-labelled cysteine peptide fold change,10 µM,0.152
same,probe-labelled cysteine peptide fold change,50 µM,0.0938
HSPA4_P34932_167_SVMDATQIAGLNCLR (UniProt P34932),probe-labelled cysteine peptide fold change,10 µM,0.0619
same,probe-labelled cysteine peptide fold change,50 µM,0.194
HMMR_O75330_242_LLEYIEEISCASDQVEK (UniProt O75330),probe-labelled cysteine peptide fold change,10 µM,0.208
same,probe-labelled cysteine peptide fold change,50 µM,-0.0825
HTATIP2_Q9BUP3_90_LDDYASAFQGHDVGFCCLGTTR (UniProt Q9BUP3),probe-labelled cysteine peptide fold change,10 µM,0.0592
same,probe-labelled cysteine peptide fold change,50 µM,0.00422
HSF1_Q00613_103_VVHIEQGGLVKPERDDTEFQHPCFLR (UniProt Q00613),probe-labelled cysteine peptide fold change,10 µM,-0.0713
same,probe-labelled cysteine peptide fold change,50 µM,0.0998
HNRNPA1_P09651_43_SHFEQWGTLTDCVVMR (UniProt P09651),probe-labelled cysteine peptide fold change,10 µM,0.0768
same,probe-labelled cysteine peptide fold change,50 µM,0.121

# 4 entries picked at random from those above:
target,measurement,setting,value
HSD17B4_P51659_277_KICDFENASKPQSIQESTGSIIEVLSK (UniProt P51659),probe-labelled cysteine peptide fold change,10 µM,-0.047
HNRNPU_Q00839_450_PLFPHVLCHNCAVEFNFGQK (UniProt Q00839),probe-labelled cysteine peptide fold change,10 µM,0.144
HSP90B1_P14625_645_LTESPCALVASQYGWSGNMER (UniProt P14625),probe-labelled cysteine peptide fold change,10 µM,-0.219
HSP90AA1_P07900_420_CLELFTELAEDK (UniProt P07900),probe-labelled cysteine peptide fold change,10 µM,-0.0655
